{"source": "PubChem BioAssay AID2685", "about": "(National Center for Advancing Translational Sciences (NCATS), 2010)", "test": "qHTS Assay for Lipid Storage Modulators in Drosophila S3 Cells;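 for cell number change: cells counted by Cell Tracker Red CMTPX staining in the red channel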", "conditions": "BODIPY lipid droplet fluorescence, 18-24 h; for cell number change: measured here: cell count max response, cells fed with added oleic acid", "summary_of_the_method": "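Drosophila S3 cells loaded with oleic acid (400 uM, as added) and compounds at several concentrations; lipid droplets imaged by 488-nm laser-scanning cytometry, 500–530 nm intensity and object ratio to cell channel. Percent activity normalized to 20 uM Triacsin C.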", "key": {"[1]": {"conditions": "measured here: cell number channel AC50, cells fed with added oleic acid"}, "[2]": {"conditions": "measured here: lipid fluorescence (Fed channel) AC50, cells fed with added oleic acid"}}, "note": "The list shows a part of the results. Further columns of the screen follow, without active or inactive calls. The list favours compounds with an active or inconclusive main result. The note in brackets gives the kind of curve behind each potency; many fits are weak.", "data": [{"smiles": "COc1ccc(C)cc1NC(=O)CN(Cc1nnc(-c2ccc(Cl)cc2)o1)C1CCCC1", "values": [{"measurement": "cell number change", "value": 138, "unit": "%"}, {"measurement": "AC50", "setting": "[1]", "value": "29.1 µM [rising, partial curve]"}, {"measurement": "AC50", "setting": "[2]", "value": "29.1 µM [rising, single point]"}]}, {"smiles": "COc1ccc(Cl)cc1S(=O)(=O)NC(C)C(=O)NCc1ccccn1", "note": "(stereo unspecified)", "values": [{"measurement": "cell number change", "value": 10.5, "unit": "%"}, {"measurement": "AC50", "setting": "[1]", "value": "0.0058 µM [rising, full curve, poor fit]"}]}, {"smiles": "COc1cccc(C(=O)NC2CC3CCCC(C2)N3S(=O)(=O)c2ccccc2)c1", "note": "(stereo unspecified)", "values": [{"measurement": "AC50", "setting": "[2]", "value": "0.164 µM [falling, full curve, poor fit]"}]}, {"smiles": "O=C(Nc1ccccc1C(=O)N1CCN(Cc2ccccc2)CC1)c1ccccc1", "values": [{"measurement": "AC50", "setting": "[2]", "value": "13 µM [rising, partial curve]"}]}, {"smiles": "CC(=O)Nc1ccc(SCC(=O)NNC(=O)CN(C)S(=O)(=O)c2ccc(C)cc2)cc1", "values": [{"measurement": "cell number change", "value": 7.63, "unit": "%"}]}, {"smiles": "CN(CC(=O)Nc1ccc(N2CCOCC2)cc1)C(=O)Cc1ccccc1", "values": [{"measurement": "cell number change", "value": -12.9, "unit": "%"}, {"measurement": "AC50", "setting": "[2]", "value": "7.31 µM [falling, single point]"}]}, {"smiles": "CCn1c(CN(C)c2ccccc2)nc2ccccc21", "values": [{"measurement": "cell number change", "value": 16.8, "unit": "%"}, {"measurement": "AC50", "setting": "[2]", "value": "0.0326 µM [rising, full curve, poor fit]"}]}, {"smiles": "O=C(O)C(Oc1ccc2c3c(c(=O)oc2c1)CCC3)c1ccccc1", "note": "(stereo unspecified)", "values": [{"measurement": "cell number change", "value": -15.6, "unit": "%"}, {"measurement": "AC50", "setting": "[2]", "value": "29.1 µM [rising, partial curve, poor fit]"}]}, {"smiles": "CC(C)(C)c1cc(Cl)ccc1OCCn1ccnc1", "values": [{"measurement": "cell number change", "value": -41.8, "unit": "%"}, {"measurement": "AC50", "setting": "[1]", "value": "16.4 µM [falling, single point]"}]}, {"smiles": "CC1=Nc2cccc3cccc(c23)N1C", "values": [{"measurement": "cell number change", "value": -33.3, "unit": "%"}, {"measurement": "AC50", "setting": "[1]", "value": "8.2 µM [falling, single point]"}]}, {"smiles": "CCc1cc(=O)oc2c(C)c(OCC(=O)NCCCN3CCOCC3)ccc12", "values": [{"measurement": "cell number change", "value": -2.83, "unit": "%"}, {"measurement": "AC50", "setting": "[2]", "value": "29.1 µM [falling, single point]"}]}, {"smiles": "CCOc1ccc2nc(SC3CC(=O)N(c4ccccc4)C3=O)sc2c1", "note": "(stereo unspecified)", "values": [{"measurement": "cell number change", "value": -0.834, "unit": "%"}, {"measurement": "AC50", "setting": "[2]", "value": "29.1 µM [falling, single point]"}]}, {"smiles": "CCCc1ccc(-c2csc(NC(=O)C3=COCCO3)n2)cc1", "values": [{"measurement": "cell number change", "value": 2.46, "unit": "%"}, {"measurement": "AC50", "setting": "[2]", "value": "0.0058 µM [rising, full curve, poor fit]"}]}, {"smiles": "COc1ccc(N2CCN(C(CNC(=O)OCc3ccccc3)c3ccco3)CC2)cc1", "note": "(stereo unspecified)", "values": [{"measurement": "cell number change", "value": 21, "unit": "%"}]}, {"smiles": "Cc1ccc(CCc2nnc(SCC(=O)Nc3cc(Cl)ccc3Cl)n2-c2ccccc2)o1", "values": [{"measurement": "cell number change", "value": 8.93, "unit": "%"}, {"measurement": "AC50", "setting": "[2]", "value": "7.31 µM [rising, partial curve]"}]}, {"smiles": "Cc1[nH]c(N=Nc2ccccc2)nc1N=Nc1ccccc1", "values": [{"measurement": "cell number change", "value": -58.5, "unit": "%"}, {"measurement": "AC50", "setting": "[1]", "value": "23.1 µM [falling, single point]"}, {"measurement": "AC50", "setting": "[2]", "value": "23.1 µM [falling, single point]"}]}, {"smiles": "COc1cc2nc(Cl)nc(N3CCN(C)CC3)c2cc1OC", "values": [{"measurement": "AC50", "setting": "[2]", "value": "0.651 µM [rising, single point]"}]}]}
